{"source": "PubChem BioAssay AID1159578 (Peter MacCallum Cancer Centre, 2015)", "aim": "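Knock-downs that alter how fast lymphatic endothelial cells migrate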 (primary screen)", "cell system": "human lymphatic endothelial cells", "knock-down reagent": "siRNA pool against human genes, 40 nM", "timing": "48 h after transfection", "detection": "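High-content imaging of dye-stained cells in a scratch assay measures filled wound area and nuclei per well; duplicate means given as ratio to mock and robust z-score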", "reading the numbers": "migration robust z-score: higher = faster migration into the scratch; nuclei per well: higher = more cells in the well", "active means": "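Pools averaging fewer than 3300 nuclei are never called; remaining pools count as changed when migration robust z lies outside -2 to 2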", "calls": "active = migration changed; inactive = no migration change, or too few cells", "note": "Here is a random part of about 18,000 reagents tested. About 1,030 of them (5.7%) count as active. 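Inactive calls also include pools with fewer than 3300 nuclei, whose migration was not assessed.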 The raw values are shown without normalisation. Unmarked entries are inactive. Not all columns of the deposit are shown. No sequences are given here."}
{"gene": "PLPBP (pyridoxal phosphate binding protein)", "PubChem SID": "SID255355682", "migration robust z-score": "-2.02 (active)", "nuclei per well, duplicate mean": 4098}
{"gene": "PPIP5K2 (diphosphoinositol pentakisphosphate kinase 2)", "PubChem SID": "SID255356115", "migration robust z-score": -1.35, "nuclei per well, duplicate mean": 5419}
{"gene": "FOXL1 (forkhead box L1)", "PubChem SID": "SID255349706", "migration robust z-score": -1.71, "nuclei per well, duplicate mean": 5060}
{"gene": "FAM221B (family with sequence similarity 221 member B)", "PubChem SID": "SID255365697", "migration robust z-score": -1, "nuclei per well, duplicate mean": 4640}
{"gene": "TSPYL1 (TSPY like 1)", "PubChem SID": "SID255352985", "migration robust z-score": 1.37, "nuclei per well, duplicate mean": 6672}
{"gene": "KRT37 (keratin 37)", "PubChem SID": "SID255353739", "migration robust z-score": -0.78, "nuclei per well, duplicate mean": 6343}
{"gene": "RTEL1 (regulator of telomere elongation helicase 1)", "PubChem SID": "SID255357884", "migration robust z-score": -0.68, "nuclei per well, duplicate mean": 7440}
{"gene": "RGMB (repulsive guidance molecule BMP co-receptor b)", "PubChem SID": "SID255364876", "migration robust z-score": 0.77, "nuclei per well, duplicate mean": 6140}
{"gene": "BNIP3 (BCL2 interacting protein 3)", "PubChem SID": "SID255348568", "migration robust z-score": 0.7, "nuclei per well, duplicate mean": 6150}
{"gene": "ZNF449 (zinc finger protein 449)", "PubChem SID": "SID255364132", "migration robust z-score": -0.6, "nuclei per well, duplicate mean": 3626}
{"gene": "KIAA1755", "PubChem SID": "SID255361699", "migration robust z-score": -0.52, "nuclei per well, duplicate mean": 6367}
{"gene": "PPP1R27 (protein phosphatase 1 regulatory subunit 27)", "PubChem SID": "SID255362388", "migration robust z-score": 1.02, "nuclei per well, duplicate mean": 5810}

In a second layout: results already given.
{"gene":"BNIP3 (BCL2 interacting protein 3)","PubChem SID":"SID255348568","migration robust z-score":0.7,"nuclei per well, duplicate mean":6150}
{"gene":"ZNF449 (zinc finger protein 449)","PubChem SID":"SID255364132","migration robust z-score":-0.6,"nuclei per well, duplicate mean":3626}

The list goes on.
{"gene": "THUMPD1 (THUMP domain 1 NAT10 acetyltransferase adaptor)", "PubChem SID": "SID255358728", "migration robust z-score": 0.26, "nuclei per well, duplicate mean": 5352}
{"gene": "MRPS5 (mitochondrial ribosomal protein S5)", "PubChem SID": "SID255360063", "migration robust z-score": -0.36, "nuclei per well, duplicate mean": 5680}
{"gene": "MAMLD1 (mastermind like domain containing 1)", "PubChem SID": "SID255354763", "migration robust z-score": 0.04, "nuclei per well, duplicate mean": 4800}
{"gene": "TTC9C (tetratricopeptide repeat domain 9C)", "PubChem SID": "SID255364653", "migration robust z-score": 1.35, "nuclei per well, duplicate mean": 6104}
{"gene": "HTR3C (5-hydroxytryptamine receptor 3C)", "PubChem SID": "SID255363904", "migration robust z-score": -0.16, "nuclei per well, duplicate mean": 5608}
{"gene": "GPS2 (G protein pathway suppressor 2)", "PubChem SID": "SID255350016", "migration robust z-score": -0.47, "nuclei per well, duplicate mean": 6219}
{"gene": "TH (tyrosine hydroxylase)", "PubChem SID": "SID255352853", "migration robust z-score": -0.16, "nuclei per well, duplicate mean": 5834}
{"gene": "GIMAP5 (GTPase, IMAP family member 5)", "PubChem SID": "SID255358614", "migration robust z-score": 1.31, "nuclei per well, duplicate mean": 4886}
{"gene": "BGN (biglycan)", "PubChem SID": "SID255348538", "migration robust z-score": 0.18, "nuclei per well, duplicate mean": 5770}
